Results published in PubChem BioAssay AID588518 (NMMLSC, 2011).
Screen size: about 1,700 compounds; about 20 (1%) were called active. No stated cut-off is given here; in the data, active means inhibition above about 26%; inactive means the rest. This list holds what a sample rich in actives left over.

What follows are compounds tested on Candida albicans multidrug efflux pump MDR1 (expressed in S. cerevisiae AD1-8u) (assay: CaMdr1 pump blockers in yeast – flow cytometry, singleplex, Cherry Pick1 set, confirmation (AID 588518;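 further: 0% = DMSO vehicle and 100% = reference inhibitor; higher means more Nile Red retained so more efflux inhibition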)). Details: S. cerevisiae AD/CaMDR1, Nile Red efflux, at 10 µM, stronger effect = higher value.

SMILES | inhibition
CCN(CC)c1ccc([N+](=O)[O-])c2cccnc12 | inactive: -0.01%
O=[N+]([O-])c1cnc2ccc3ccccc3c2c1 | inactive: -0.03%
